This is an account of results in article PMC7819943, “Rice protein-binding microarrays: a tool to detect cis-acting elements near promoter regions in rice”.

Amino acid sequences for entries named in this document (tags omitted).
UniProt Q0JBA9, entry or part of it: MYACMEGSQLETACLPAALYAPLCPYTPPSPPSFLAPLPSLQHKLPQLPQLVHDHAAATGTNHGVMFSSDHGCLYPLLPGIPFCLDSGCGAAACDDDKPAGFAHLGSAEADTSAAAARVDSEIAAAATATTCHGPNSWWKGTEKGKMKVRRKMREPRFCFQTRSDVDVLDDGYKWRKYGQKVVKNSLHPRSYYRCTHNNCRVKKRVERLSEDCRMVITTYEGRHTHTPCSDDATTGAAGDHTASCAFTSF

Some of the results follow.

For the assay, the target named is OsWRKY34 (Oryza sativa, UniProt Q0JBA9 1-250). Kind of assay: protein-binding microarray (RPBM); PBS, 2% BSA, 51.3 ng/ul salmon testes DNA, 50 uM zinc acetate, 200 nM TF, 25 C, 1 h; high values mean tight binding. Conditions: protein: recombinant; tags: N-terminal polyhistidine and DsRed monomer fusion (pET32a); label: CyDye5-dUTP incorporated in the synthesized complementary strand; 3' TTTTT single-stranded linker to array surface; dsDNA, one strand shown. The essentials: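 Binding signal is defined as the fluorescence intensity of each feature in arbitrary units, read on an Axon 4000B scanner. Transcription factors with N-terminal polyhistidine and DsRed fusions came from E. coli BL21-CodonPlus and were purified on Ni–NTA. They were incubated at 200 nM for 1 h at 25 °C on a custom Agilent array that had been made double-stranded with Cy5-dUTP, with 50 µM zinc acetate present, and the array was washed.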
With “GTTCTAGTGTTCTGTTGAAATTACTCTCTCTGTCCCAAAACGGAGTCACCTAGTGCAG”, the binding signal was 12700 fluorescence intensity (a.u.).
For “CATTGATTTTTTTTCTGTTTTCATGATCAATTTTTTTTCTCGGAGTCACCTAGTGCAG” the value was 11100 fluorescence intensity (a.u.); for “TTTTTTAACTTCTTCTACATGTTTTTTTAATAATCGTGTTCGGAGTCACCTAGTGCAG”, 8710 fluorescence intensity (a.u.); for “ACGTTTTTCCTATTCCTACGTTTTCTCAATCCTGCGATTCCGGAGTCACCTAGTGCAG”, 9020 fluorescence intensity (a.u.).
For “TCGGTCTATTTATGCTCATAAACCATGGTCTCTTGTTTTTCGGAGTCACCTAGTGCAG” the value was 12600 fluorescence intensity (a.u.); for “AACATATATGCGGCATCCTTACTTAACAATCGGTCACAATCGGAGTCACCTAGTGCAG”, 8740 fluorescence intensity (a.u.); for “CTTAACTTTGCACAAAACTGGCCAGCACGAAGATCAAAGCCGGAGTCACCTAGTGCAG”, 8220 fluorescence intensity (a.u.).
The same measure for “CGTTTTCGAAGATATGATACCGACTCCGACCGTTTTCATCCGGAGTCACCTAGTGCAG”: 8320 fluorescence intensity (a.u.); for “TTTACCTTCATCATTTTGGGCTTGTATATATTGTACAATTCGGAGTCACCTAGTGCAG”: 9190 fluorescence intensity (a.u.); for “GCCGCCTCCCTTCTCGCAGCTCTGGTGACGCCTCCTGTCTCGGAGTCACCTAGTGCAG”: 8150 fluorescence intensity (a.u.).
Take “GCATGCAAATATTATCACCGGTCTACCATTATCTATAAAACGGAGTCACCTAGTGCAG”: the binding signal is 8030 fluorescence intensity (a.u.).
The same measure for “TATGTATTAGTGTGTATGTGTTAAGGGGTATTTCTGTCTTCGGAGTCACCTAGTGCAG”: 13900 fluorescence intensity (a.u.).
The same measure for “ATCTTTTATGCTTGGTCCTATCTGTACTACTCGTGTGTTTCGGAGTCACCTAGTGCAG”: 11000 fluorescence intensity (a.u.); for “AGGTTTGCTCCCATACTTCTTTTGCATTTGTACTAATATACGGAGTCACCTAGTGCAG”: 10800 fluorescence intensity (a.u.); for “CAAACTTGGTCAAACTTAAAACAGTTTGACTTTGATCAAACGGAGTCACCTAGTGCAG”: 9260 fluorescence intensity (a.u.).
The same measure for “ATTTCCGCTTCGACGCCATTGTTGCAACCTCTCTTGCCGCCGGAGTCACCTAGTGCAG”: 10100 fluorescence intensity (a.u.); for “GGCGGTGAGGGAGGCGGGCAGGATGAAGAAGAAGAAGAAGCGGAGTCACCTAGTGCAG”: 10900 fluorescence intensity (a.u.).
As to “CGTCTCCATCCTCCGCTCTCGTCCCCGGCGCCGCCACCACCGGAGTCACCTAGTGCAG”, the binding signal is 8860 fluorescence intensity (a.u.).
The same measure for “ACGTATCAGCCGCACTCGTCGTGCGCACGCCGTCTCGCCGCGGAGTCACCTAGTGCAG”: 8550 fluorescence intensity (a.u.); for “TCCACCTTCTAACCGCTTCCTTGCTTGCTGCCATAAGCCGCGGAGTCACCTAGTGCAG”: 8300 fluorescence intensity (a.u.); for “AATCCAAAACAGCCCCATGTTTACACTCTACAGTCCCCTACGGAGTCACCTAGTGCAG”: 8340 fluorescence intensity (a.u.).
The same measure for “GTGCGTGTAAACTTTTTTGGGGTTGTTTTGGGCGGTTACTCGGAGTCACCTAGTGCAG”: 18200 fluorescence intensity (a.u.).
For “CGTACACAACAATAGTCTCTCTTTGTCCATATGACGTATCCGGAGTCACCTAGTGCAG” the value was 9260 fluorescence intensity (a.u.); for “TACCTCTCTCTCTCTCTCGCCTCCCTGCGCTCTCTTGTGTCGGAGTCACCTAGTGCAG”, 8520 fluorescence intensity (a.u.).
Regarding “CCACGCCACATCCCTAAACTTCTCCATCTCCATAGTACTCCGGAGTCACCTAGTGCAG”, the binding signal was 9680 fluorescence intensity (a.u.).
For “AGGCCCGACGCCGTGCTTGCATTCCTCGCCGAAGAGCTCGCGGAGTCACCTAGTGCAG” the value was 8770 fluorescence intensity (a.u.); for “AGGGTAGACAGGGATACAGGATGGGAATCATAATATAGATCGGAGTCACCTAGTGCAG”, 8040 fluorescence intensity (a.u.); for “ACCTTCTTCTTCGTCCAACATGGTTCATCGCCAGCGTCGTCGGAGTCACCTAGTGCAG”, 11900 fluorescence intensity (a.u.).
The same measure for “TAATGGTTCTGCGGCTTGGACTTCTCTCTCTCTCTCGTTTCGGAGTCACCTAGTGCAG”: 11600 fluorescence intensity (a.u.).
On to “GAAACATGGTTGGTTTTGTCCTTGTCGTGGCTACTCCAAGCGGAGTCACCTAGTGCAG”, for which the binding signal is 11200 fluorescence intensity (a.u.).
For “AATTTCTTAGCACATGTTTGACTGTTCGTCTTATTAAAAACGGAGTCACCTAGTGCAG” the value was 9430 fluorescence intensity (a.u.); for “ACATATATAACCACTCTATCTATTGCATATAACATAAGTTCGGAGTCACCTAGTGCAG”, 8580 fluorescence intensity (a.u.); for “CGTCCTTATTGTGGTTTTCCACGTGTTTGTCTCTGTGTTTCGGAGTCACCTAGTGCAG”, 13300 fluorescence intensity (a.u.).
The same measure for “TTCCTGCGGCCCAATCAAACGGTCATTCCTATGTCTTTTTCGGAGTCACCTAGTGCAG”: 8600 fluorescence intensity (a.u.); for “TTTCGTCTTGCTGCGGCGGGGAGGGTGGTGAAGCGAAAGTCGGAGTCACCTAGTGCAG”: 16000 fluorescence intensity (a.u.).
The same measure for “ATATCTGTCCTAGTTTGTTTCAATCTCAATATACTGTAATCGGAGTCACCTAGTGCAG”: 8230 fluorescence intensity (a.u.).
On to “TGTATGTGTGGTGTGTGTTCATGTGCATCCTGAATTTTACCGGAGTCACCTAGTGCAG”, for which the binding signal is 14200 fluorescence intensity (a.u.).
The same measure for “GTCCGGCCCACCCACCACCCCGGCGGCGGCGGCGGCCATGCGGAGTCACCTAGTGCAG”: 9290 fluorescence intensity (a.u.).
With “GCTCAGATTCTTCCCGTGGGCTATTTTTACCACCCGCATCCGGAGTCACCTAGTGCAG”, the binding signal is 9410 fluorescence intensity (a.u.).
As to “TCGCTCTGTACTTTACACGTTGGTTCCTTTTGTATGTGATCGGAGTCACCTAGTGCAG”, the binding signal was 8390 fluorescence intensity (a.u.).
For “TATGTGTCATCAATACTATCTTATTTTTACTCTCACACTCCGGAGTCACCTAGTGCAG” the value was 8230 fluorescence intensity (a.u.).
The same measure for “AACGTACACCACATCCCTTTCCCGTTAACTTGGGCCATGCCGGAGTCACCTAGTGCAG”: 10700 fluorescence intensity (a.u.); for “TCTTTCAGTTTTTTTTTTCCCGTCCCCTTTCCTCTCGTTTCGGAGTCACCTAGTGCAG”: 10300 fluorescence intensity (a.u.).
Consider “GGCCTCGTCTCCTACCTCGCCGACCCCGACCCCGACCACGCGGAGTCACCTAGTGCAG”, for which the binding signal was 8440 fluorescence intensity (a.u.).
For “CTCATCCGATTCCTGCGTTTTTCCTGCGCTCCAATCAAACCGGAGTCACCTAGTGCAG” the value was 9990 fluorescence intensity (a.u.); for “TCATGTCCGAAAACTCCTTTCGACATCTGGTCAAACATCCCGGAGTCACCTAGTGCAG”, 8100 fluorescence intensity (a.u.); for “CTACAAGTACGAGCCATATCTCTCGCGTCAATGCTTGCGACGGAGTCACCTAGTGCAG”, 10000 fluorescence intensity (a.u.).
As to “AATAGCCTCGTCCCTGTAAACTCCCAATCCCTTTTTAAAACGGAGTCACCTAGTGCAG”, the binding signal is 8420 fluorescence intensity (a.u.).
Consider “GAACTGAAATGTGTGGCTTAGTTAATTCTCTTACAGCAACCGGAGTCACCTAGTGCAG”, for which the binding signal is 8640 fluorescence intensity (a.u.).
As to “TCTTGTCTTGTTATTTTACCATATTTATAATTTTTTTGACCGGAGTCACCTAGTGCAG”, the binding signal was 10700 fluorescence intensity (a.u.).
For “CGCCTCCTCCCTTCACACGTTCATCTGCTTCTCTCTCTCACGGAGTCACCTAGTGCAG” the value was 8270 fluorescence intensity (a.u.); for “TTGTCGTGTCACCTCCATTCTCACCCAACTTCCTTACCTACGGAGTCACCTAGTGCAG”, 13300 fluorescence intensity (a.u.); for “CTACTCGTTTATTGACTTATTGTCCATCATAGATTCTAAACGGAGTCACCTAGTGCAG”, 8370 fluorescence intensity (a.u.).
The same measure for “TCACCTACTCTACTCCTCCTCGCCGCCGCCGCCGCTGCTGCGGAGTCACCTAGTGCAG”: 8610 fluorescence intensity (a.u.).
